# Experimental data taken from the supplement of paper PMC4604168 (melanoma cell lines).
# The other results are listed elsewhere or left out. Repeats are few or missing, and single values can be far off.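 Cells were imaged in 1,536-well plates, and nuclei stained with an antibody against cleaved PARP were counted against all DNA-stained nuclei to give the apoptosis fraction. Screening doses were chosen to leave most cells alive, and resting and induced cleaved-PARP levels differ strongly between cell lines.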
# Assays:
# Test in all cases: cleaved PARP positive nuclei fraction relative to DMSO control; melanoma cells; higher = more apoptosis
# Details in all cases: library dose: low library concentration; 72 h
# [1] = system: 501Mel
# [2] = system: A101D
# [3] = system: A2058
# [4] = system: A375
# [5] = system: C32
# [6] = system: CBRC008 (line from a melanoma biopsy)
# [7] = system: CBRC013 (line from a melanoma biopsy)
# [8] = system: CBRC014 (line from a melanoma biopsy)
# [9] = system: CBRC016 (line from a melanoma biopsy)
# [10] = system: CBRC017 (line from a melanoma biopsy)
# [11] = system: COLO792
# [12] = system: COLO800
# [13] = system: COLO829
# [14] = system: G361
# [15] = system: IPC-298
# [16] = system: IST-MEL1
# [17] = system: LB2518-MEL
# [18] = system: LOXIMVI
# [19] = system: MEL-HO
SMILES,cleaved PARP positive nuclei fraction [1],cleaved PARP positive nuclei fraction [2],cleaved PARP positive nuclei fraction [3],cleaved PARP positive nuclei fraction [4],cleaved PARP positive nuclei fraction [5],cleaved PARP positive nuclei fraction [6],cleaved PARP positive nuclei fraction [7],cleaved PARP positive nuclei fraction [8],cleaved PARP positive nuclei fraction [9],cleaved PARP positive nuclei fraction [10],cleaved PARP positive nuclei fraction [11],cleaved PARP positive nuclei fraction [12],cleaved PARP positive nuclei fraction [13],cleaved PARP positive nuclei fraction [14],cleaved PARP positive nuclei fraction [15],cleaved PARP positive nuclei fraction [16],cleaved PARP positive nuclei fraction [17],cleaved PARP positive nuclei fraction [18],cleaved PARP positive nuclei fraction [19]
"NC1(c2ccc(-c3nc4ccn5c(=O)[nH]nc5c4cc3-c3ccccc3)cc2)CCC1 + NC(=O)Nc1cc(-c2cccc(F)c2)sc1C(=O)N[C@H]1CCCNC1 [AZD7762] (first compound 0.4 µM, partner dose 0.02 µM)",66%,196%,1090%,115%,61.4%,89.5%,86.9%,75.1%,85.9%,91.2%,133%,45.7%,108%,66.4%,48.2%,87%,367%,45.7%,75.7%
"CCCCCCCCc1ccc(CCC(N)(CO)CO)cc1 [fingolimod] + O=C(Nc1cccc(Cl)c1)Nc1ncc(CCNc2ncnc3ccsc23)s1 [SNS314] (first compound 2 µM, partner dose 0.0008 µM)",186%,100%,68.5%,406%,175%,190%,119%,492%,27.8%,158%,139%,77.5%,89.2%,164%,91%,78.4%,129%,35.1%,70.9%
"CCN(CC)CCNC(=O)c1c(C)[nH]c(/C=C2\C(=O)Nc3ccc(F)cc32)c1C [sunitinib] + NCC(=O)Nc1ccc(-n2nc(C(F)(F)F)cc2-c2ccc3c(ccc4ccccc43)c2)cc1 [OSU03012] (first compound 0.4 µM, partner dose 1 µM)",298%,273%,56.6%,3120%,137%,116%,204%,97.4%,86.6%,121%,187%,75%,105%,90.4%,113%,391%,100%,78.5%,69.7%
"NC1(c2ccc(-c3nc4ccn5c(=O)[nH]nc5c4cc3-c3ccccc3)cc2)CCC1 + OCCn1cc(-c2cnc3nnn(Cc4ccc5ncccc5c4)c3n2)cn1 [PF04217903] (first compound 0.4 µM, partner dose 1 µM)",93.3%,86.6%,112%,135%,192%,175%,111%,82.7%,60.1%,102%,91.2%,85.9%,61.4%,62%,61.5%,268%,290%,63.1%,38.5%
"CN(c1ncccc1CNc1nc(Nc2ccc3c(c2)CC(=O)N3)ncc1C(F)(F)F)S(C)(=O)=O + O=C(Nc1cccc(Cl)c1)Nc1ncc(CCNc2ncnc3ccsc23)s1 [SNS314] (first compound 0.08 µM, partner dose 0.0008 µM)",115%,82.9%,73.2%,60.5%,334%,125%,77.7%,87%,84.3%,84.6%,53.1%,133%,93.3%,125%,88.1%,150%,70.2%,53.6%,144%
"CCN(CC)CCNC(=O)c1c(C)[nH]c(/C=C2\C(=O)Nc3ccc(F)cc32)c1C [sunitinib] + Cn1cncc1[C@@](N)(c1ccc(Cl)cc1)c1ccc2c(c1)c(-c1cccc(Cl)c1)cc(=O)n2C [tipifarnib] (first compound 0.4 µM, partner dose 0.01 µM)",106%,190%,57.2%,673%,108%,236%,231%,87.5%,129%,122%,97.1%,244%,115%,108%,50.8%,159%,133%,113%,74.1%
"Cn1cnc2c(F)c(Nc3ccc(Br)cc3Cl)c(C(=O)NOCCO)cc21 [selumetinib] + Cc1cc(N2CCOCC2)cc2[nH]c(-c3c(NC[C@@H](O)c4cccc(Cl)c4)cc[nH]c3=O)nc12 [BMS536924] (first compound 0.015 µM, partner dose 0.2 µM)",287%,77.3%,97.9%,136%,61.5%,233%,184%,239%,92.3%,150%,90.9%,54.2%,87.1%,186%,138%,36.2%,201%,53%,295%
"CC1(C)CCC(c2ccc(Cl)cc2)=C(CN2CCN(c3ccc(C(=O)NS(=O)(=O)c4ccc(N[C@H](CCN5CCOCC5)CSc5ccccc5)c(S(=O)(=O)C(F)(F)F)c4)cc3)CC2)C1 + OCCn1cc(-c2cnc3nnn(Cc4ccc5ncccc5c4)c3n2)cn1 [PF04217903] (first compound 0.4 µM, partner dose 1 µM)",231%,120%,77.2%,202%,1170%,1100%,43.2%,349%,499%,1200%,294%,370%,72.8%,196%,46.2%,40.6%,69.2%,178%,113%
"NC(=O)c1ccc(N(C(N)=O)c2c(F)cccc2F)nc1-c1ccc(F)cc1F + NCC(=O)Nc1ccc(-n2nc(C(F)(F)F)cc2-c2ccc3c(ccc4ccccc43)c2)cc1 [OSU03012] (first compound 0.4 µM, partner dose 1 µM)",383%,94%,56.8%,1220%,50.4%,110%,104%,255%,88%,108%,250%,129%,68%,144%,96%,430%,199%,121%,112%
"CCN(CC)CCNC(=O)c1c(C)[nH]c(/C=C2\C(=O)Nc3ccc(F)cc32)c1C [sunitinib] + Cc1ccc(NC(=O)c2cccc(N(C)C)c2)cc1NC(=O)c1ccc(O)cc1 [ZM336372] (first compound 0.4 µM, partner dose 2 µM)",82.2%,87.9%,37.7%,478%,56.8%,86%,202%,91%,184%,246%,96.5%,114%,109%,127%,140%,106%,99%,26.2%,135%
"Cn1cnc2c(F)c(Nc3ccc(Br)cc3Cl)c(C(=O)NOCCO)cc21 [selumetinib] + Cc1ccc(NC(=O)c2cccc(N(C)C)c2)cc1NC(=O)c1ccc(O)cc1 [ZM336372] (first compound 0.015 µM, partner dose 2 µM)",212%,127%,50.8%,72.8%,106%,317%,107%,94.4%,80.9%,64.3%,68.2%,190%,30.6%,146%,117%,131%,93.5%,57.4%,58.7%
"NC1(c2ccc(-c3nc4ccn5c(=O)[nH]nc5c4cc3-c3ccccc3)cc2)CCC1 + CC(C)(C)c1cnc(CSc2cnc(NC(=O)C3CCNCC3)s2)o1 [SNS-032] (first compound 0.4 µM, partner dose 0.01 µM)",88.1%,189%,40.9%,114%,98.2%,71.8%,90.6%,64.2%,87.7%,113%,182%,125%,145%,18%,133%,255%,111%,289%,257%
"CS(=O)(=O)c1ccc(C(=O)Nc2ccc(Cl)c(-c3ccccn3)c2)c(Cl)c1 [vismodegib] + CC(C)(C)c1cnc(CSc2cnc(NC(=O)C3CCNCC3)s2)o1 [SNS-032] (first compound 1 µM, partner dose 0.01 µM)",137%,79.2%,57.9%,73.8%,39.8%,56.4%,174%,97.1%,44.8%,72.6%,80.7%,43.6%,77.7%,59.2%,240%,190%,53.5%,45.7%,57.9%
"NC(=O)c1ccc(N(C(N)=O)c2c(F)cccc2F)nc1-c1ccc(F)cc1F + COc1cc2c(Oc3ccc4[nH]c(C)cc4c3F)ncnc2cc1OCCCN1CCCC1 [cediranib] (first compound 0.4 µM, partner dose 0.4 µM)",80.1%,52.2%,129%,157%,141%,75.4%,147%,158%,74.4%,137%,59.8%,185%,34.4%,79.8%,88.9%,99.6%,60.5%,60.1%,67.4%
"CN(c1ncccc1CNc1nc(Nc2ccc3c(c2)CC(=O)N3)ncc1C(F)(F)F)S(C)(=O)=O + O=C(CCCCCCC(=O)Nc1ccccc1)NO [vorinostat] (first compound 0.08 µM, partner dose 0.08 µM)",196%,85.8%,188%,97.3%,82.7%,287%,71.9%,86.1%,90.5%,117%,96.1%,128%,137%,107%,23.7%,46.6%,39.6%,288%,69%
"CCN(CC)CCNC(=O)c1c(C)[nH]c(/C=C2\C(=O)Nc3ccc(F)cc32)c1C [sunitinib] + CN(C)S(=O)(=O)c1ccc2c(c1)/C(=C/c1cc3c([nH]1)CCCC3)C(=O)N2 [SU6656] (first compound 0.4 µM, partner dose 0.4 µM)",50.9%,105%,142%,54.7%,67.7%,39.3%,222%,94.9%,148%,99%,242%,176%,68.7%,93.5%,46.7%,88.7%,97.9%,25.2%,79.4%
"CCCCCCCCc1ccc(CCC(N)(CO)CO)cc1 [fingolimod] + C=CCn1c(=O)c2cnc(Nc3ccc(N4CCN(C)CC4)cc3)nc2n1-c1cccc(C(C)(C)O)n1 [MK1775] (first compound 2 µM, partner dose 0.02 µM)",175%,67.9%,90.6%,649%,174%,111%,49.6%,107%,137%,101%,73.6%,33.1%,73.8%,53.6%,95%,88.3%,62.7%,17.8%,66.1%

# 2 entries from above in another layout.
SMILES | cleaved PARP positive nuclei fraction [1] | cleaved PARP positive nuclei fraction [2] | cleaved PARP positive nuclei fraction [3] | cleaved PARP positive nuclei fraction [4] | cleaved PARP positive nuclei fraction [5] | cleaved PARP positive nuclei fraction [6] | cleaved PARP positive nuclei fraction [7] | cleaved PARP positive nuclei fraction [8] | cleaved PARP positive nuclei fraction [9] | cleaved PARP positive nuclei fraction [10] | cleaved PARP positive nuclei fraction [11] | cleaved PARP positive nuclei fraction [12] | cleaved PARP positive nuclei fraction [13] | cleaved PARP positive nuclei fraction [14] | cleaved PARP positive nuclei fraction [15] | cleaved PARP positive nuclei fraction [16] | cleaved PARP positive nuclei fraction [17] | cleaved PARP positive nuclei fraction [18] | cleaved PARP positive nuclei fraction [19]
NC1(c2ccc(-c3nc4ccn5c(=O)[nH]nc5c4cc3-c3ccccc3)cc2)CCC1 + NC(=O)Nc1cc(-c2cccc(F)c2)sc1C(=O)N[C@H]1CCCNC1 [AZD7762] (first compound 0.4 µM, partner dose 0.02 µM) | 66% | 196% | 1090% | 115% | 61.4% | 89.5% | 86.9% | 75.1% | 85.9% | 91.2% | 133% | 45.7% | 108% | 66.4% | 48.2% | 87% | 367% | 45.7% | 75.7%
NC(=O)c1ccc(N(C(N)=O)c2c(F)cccc2F)nc1-c1ccc(F)cc1F + NCC(=O)Nc1ccc(-n2nc(C(F)(F)F)cc2-c2ccc3c(ccc4ccccc43)c2)cc1 [OSU03012] (first compound 0.4 µM, partner dose 1 µM) | 383% | 94% | 56.8% | 1220% | 50.4% | 110% | 104% | 255% | 88% | 108% | 250% | 129% | 68% | 144% | 96% | 430% | 199% | 121% | 112%
